# Measured data: PubChem BioAssay AID686943 (Drosophila RNAi Screening Center, 2013)
# Purpose: 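Knockdowns that increase or decrease active ERK after insulin receptor stimulation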 (primary screen)
# System: Drosophila S2R+ haemocyte-like cells expressing YFP-tagged ERK (Rolled)
# Reagents: long dsRNA against Drosophila genes
# Conditions: insulin stimulation versus unstimulated cells; dose and duration not given
# Detection: 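Per-plate z-scores of phospho-ERK immunostaining normalised to YFP-tagged ERK, measured with and without insulin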
# Reading the numbers: replicate 1, z-score of dpERK with insulin and replicate 2, z-score of dpERK with insulin: higher = more active ERK per ERK-YFP after insulin; replicate 1, z-score of dpERK under basal conditions: higher = more basal active ERK per ERK-YFP; replicate 1, z-score of ERK-YFP with insulin: higher = more YFP-tagged ERK signal
# The screen tested about 23,000 reagents; this is a random part of those that have a named target and a result. 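Extra replicates exist only for a retested subset of genes; insulin dose and duration not given; both raised and lowered dpERK matter.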 A plus sign joins genes that one reagent is predicted to hit. No sequences are given here. Not stated in the record: the amount of reagent, the time to read-out.
target gene,dsRNA,"replicate 1, z-score of dpERK with insulin","replicate 2, z-score of dpERK with insulin","replicate 1, z-score of dpERK under basal conditions","replicate 1, z-score of ERK-YFP with insulin"
CG13062,DRSC09945,0.1,0.22,-0.5,-0.73
CG3708,DRSC18646,0.89,0.35,0.64,-0.12
CG8738,DRSC07256,0.15,0.72,-0.44,-0.07
CG14518,DRSC14870,-0.66,0,0.69,0.54
Or35a,DRSC03389,0.78,0,0.42,-0.03
CG6330,DRSC16022,-0.79,-0.56,0.19,0.71
CkIalpha,DRSC20231,-1,0.05,0.77,-0.69
CkIalpha,DRSC22609,-0.22,0.34,-0.14,0.16
CG42656,DRSC12472,1.89,0.34,-1.05,-0.28
Cdk5,DRSC07359,0.95,0.75,-0.99,0.27
Prx6c + CG12896 + Prx6b,DRSC06148,0.94,0.26,-0.55,-0.21
NT1,DRSC08530,-0.63,-0.34,0.8,-0.35
NT1,DRSC22895,-2.14,0.31,1.36,1.12
CG12420,DRSC14514,1.12,0.5,0.01,-0.1

An excerpt from above, showing only “replicate 2, z-score of dpERK with insulin”.
Cdk5 [DRSC07359]	0.75
Prx6c + CG12896 + Prx6b [DRSC06148]	0.26
NT1 [DRSC08530]	-0.34

The listing continues:
target gene,dsRNA,"replicate 1, z-score of dpERK with insulin","replicate 2, z-score of dpERK with insulin","replicate 1, z-score of dpERK under basal conditions","replicate 1, z-score of ERK-YFP with insulin"
CG12836,DRSC06182,0.14,1.01,-0.07,0.01
Lim1,DRSC17752,0.26,0.25,-0.65,0.12
Lim1,DRSC18677,1.4,0.32,-0.77,-0.05
CCT1,DRSC16877,-1.23,0,-0.4,-0.96
Prp31,DRSC10735,0.73,0.64,0.62,-0.53
CG31300,DRSC14657,0.49,0.17,0.46,-0.32
Cpsf100,DRSC14146,2.64,1.35,0.81,-1.25
CG15099,DRSC06528,0.27,0.06,0.95,1.25
CG3860,DRSC04425,0.58,0.67,-1.05,-0.59
ss,DRSC17069,0.6,0.17,-0.46,-0.36
Lcp65Af,DRSC11213,0.81,0.86,0.17,-0.28
trol,DRSC17714,0.72,0.41,-0.29,-0.54
trol,DRSC17718,-0.76,-0.98,-0.92,-1.01
trol,DRSC18613,-0.45,0.14,0.4,0.66
trol,DRSC18814,0.01,0.43,1.43,0.41
CG13920,DRSC08389,-0.29,0.01,-0.01,0.65
CG12241,DRSC14481,1.13,0.15,1.85,1.22
Stip1,DRSC00756,0.39,1.15,-0.26,-0.55
Pex10,DRSC08599,0.4,1.89,0.42,-0.27
Pex10,DRSC22021,0.22,0.43,-0.24,0.23
DCTN6-p27,DRSC02609,0.68,-0.09,0.3,-0.85
DCTN6-p27,DRSC22810,0.14,-0.17,0.84,-0.39
lky,DRSC20682,0.45,-0.14,0.27,-0.05
CG5026,DRSC10470,0.2,0,-0.19,-0.1
Atg18a,DRSC10943,-0.6,0.07,1.28,0.39
